Results are given in words; binding and its absence hold for the method and conditions named. In cells and extracts the contact can be indirect. Here binding means that the protein was enriched with, or labelled near, the bait; the list need not be complete. Tags and fused reporters may be left off the sequences shown.
Experiments:
[1] = substrate: CBP (human) (UniProt Q92793); test: BioID proximity labelling (FIG. 5D)
[2] = biological target: p300 (human) (UniProt Q09472); test: BioID proximity labelling (FIG. 5D)
[3] = biological target: p300 (human) (UniProt Q09472); test: BioID2 proximity labelling, HEK293 cells
[4] = substrate: CBP (human) (UniProt Q92793); test: BioID2 proximity labelling, HEK293 cells

The chains behind the UniProt entries cited, without tags or fusion partners. Residues count along the entry.
UniProt Q92793, residues 2-2442: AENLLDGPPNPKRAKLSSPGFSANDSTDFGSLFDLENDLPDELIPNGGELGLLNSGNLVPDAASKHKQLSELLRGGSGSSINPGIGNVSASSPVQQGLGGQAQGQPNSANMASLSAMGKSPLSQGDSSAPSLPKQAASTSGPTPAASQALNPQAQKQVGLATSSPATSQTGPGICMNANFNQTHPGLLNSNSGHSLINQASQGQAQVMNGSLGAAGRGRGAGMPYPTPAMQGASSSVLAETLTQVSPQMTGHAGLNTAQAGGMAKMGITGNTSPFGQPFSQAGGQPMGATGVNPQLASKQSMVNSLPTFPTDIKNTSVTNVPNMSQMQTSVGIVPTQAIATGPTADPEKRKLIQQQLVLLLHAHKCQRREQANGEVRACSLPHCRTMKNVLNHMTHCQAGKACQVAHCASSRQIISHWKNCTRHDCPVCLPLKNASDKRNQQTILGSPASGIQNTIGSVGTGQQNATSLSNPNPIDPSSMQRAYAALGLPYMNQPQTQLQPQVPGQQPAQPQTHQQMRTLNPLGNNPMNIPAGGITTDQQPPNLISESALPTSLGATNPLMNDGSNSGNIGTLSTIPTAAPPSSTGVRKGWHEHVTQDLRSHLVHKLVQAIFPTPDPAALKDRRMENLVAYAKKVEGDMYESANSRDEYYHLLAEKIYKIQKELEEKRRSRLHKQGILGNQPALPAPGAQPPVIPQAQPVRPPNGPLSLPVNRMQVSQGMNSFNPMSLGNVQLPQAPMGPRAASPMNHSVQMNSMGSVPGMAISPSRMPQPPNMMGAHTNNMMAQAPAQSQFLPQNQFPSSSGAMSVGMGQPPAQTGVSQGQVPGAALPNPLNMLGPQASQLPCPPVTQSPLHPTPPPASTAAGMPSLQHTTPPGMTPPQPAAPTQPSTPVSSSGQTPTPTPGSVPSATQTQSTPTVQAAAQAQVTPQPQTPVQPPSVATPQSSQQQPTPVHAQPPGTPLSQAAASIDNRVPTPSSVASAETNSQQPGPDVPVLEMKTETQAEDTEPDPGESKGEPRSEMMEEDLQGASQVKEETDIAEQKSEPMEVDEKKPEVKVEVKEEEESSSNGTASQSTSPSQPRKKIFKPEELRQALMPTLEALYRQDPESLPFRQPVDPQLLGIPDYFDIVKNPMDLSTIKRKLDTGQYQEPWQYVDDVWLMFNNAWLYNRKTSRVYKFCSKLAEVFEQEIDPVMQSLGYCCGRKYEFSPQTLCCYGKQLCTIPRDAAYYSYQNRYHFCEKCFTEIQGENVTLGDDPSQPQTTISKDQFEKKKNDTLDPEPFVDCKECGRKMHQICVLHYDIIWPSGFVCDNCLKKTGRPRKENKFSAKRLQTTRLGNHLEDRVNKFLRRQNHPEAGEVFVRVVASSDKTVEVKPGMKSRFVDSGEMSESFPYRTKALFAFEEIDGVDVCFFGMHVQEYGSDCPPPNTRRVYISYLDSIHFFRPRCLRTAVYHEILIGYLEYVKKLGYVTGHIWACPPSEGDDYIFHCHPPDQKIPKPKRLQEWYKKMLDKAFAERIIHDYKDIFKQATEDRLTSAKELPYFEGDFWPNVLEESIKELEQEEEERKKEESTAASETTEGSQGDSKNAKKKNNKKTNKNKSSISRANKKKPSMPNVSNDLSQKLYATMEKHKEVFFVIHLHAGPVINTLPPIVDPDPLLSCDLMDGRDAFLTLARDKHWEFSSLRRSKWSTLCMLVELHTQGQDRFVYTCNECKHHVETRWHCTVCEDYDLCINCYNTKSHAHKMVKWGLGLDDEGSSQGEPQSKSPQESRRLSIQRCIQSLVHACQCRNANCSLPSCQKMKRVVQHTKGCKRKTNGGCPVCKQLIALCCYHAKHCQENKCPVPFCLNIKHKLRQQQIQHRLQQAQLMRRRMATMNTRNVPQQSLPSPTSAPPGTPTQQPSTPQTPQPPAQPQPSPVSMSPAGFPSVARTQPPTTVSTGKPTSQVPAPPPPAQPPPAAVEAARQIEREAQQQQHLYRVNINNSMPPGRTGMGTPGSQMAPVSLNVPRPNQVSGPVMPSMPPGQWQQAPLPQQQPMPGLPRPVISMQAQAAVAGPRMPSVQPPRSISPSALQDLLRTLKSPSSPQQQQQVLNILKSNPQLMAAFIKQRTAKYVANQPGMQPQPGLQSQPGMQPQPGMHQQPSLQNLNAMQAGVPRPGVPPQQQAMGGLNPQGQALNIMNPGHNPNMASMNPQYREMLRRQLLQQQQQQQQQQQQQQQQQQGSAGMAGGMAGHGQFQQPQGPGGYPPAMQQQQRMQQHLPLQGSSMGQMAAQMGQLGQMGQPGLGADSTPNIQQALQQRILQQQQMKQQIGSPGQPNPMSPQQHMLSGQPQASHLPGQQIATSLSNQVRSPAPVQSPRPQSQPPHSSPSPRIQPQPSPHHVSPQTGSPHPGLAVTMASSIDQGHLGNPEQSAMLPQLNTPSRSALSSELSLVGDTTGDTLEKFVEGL
UniProt Q09472, residues 2-2414: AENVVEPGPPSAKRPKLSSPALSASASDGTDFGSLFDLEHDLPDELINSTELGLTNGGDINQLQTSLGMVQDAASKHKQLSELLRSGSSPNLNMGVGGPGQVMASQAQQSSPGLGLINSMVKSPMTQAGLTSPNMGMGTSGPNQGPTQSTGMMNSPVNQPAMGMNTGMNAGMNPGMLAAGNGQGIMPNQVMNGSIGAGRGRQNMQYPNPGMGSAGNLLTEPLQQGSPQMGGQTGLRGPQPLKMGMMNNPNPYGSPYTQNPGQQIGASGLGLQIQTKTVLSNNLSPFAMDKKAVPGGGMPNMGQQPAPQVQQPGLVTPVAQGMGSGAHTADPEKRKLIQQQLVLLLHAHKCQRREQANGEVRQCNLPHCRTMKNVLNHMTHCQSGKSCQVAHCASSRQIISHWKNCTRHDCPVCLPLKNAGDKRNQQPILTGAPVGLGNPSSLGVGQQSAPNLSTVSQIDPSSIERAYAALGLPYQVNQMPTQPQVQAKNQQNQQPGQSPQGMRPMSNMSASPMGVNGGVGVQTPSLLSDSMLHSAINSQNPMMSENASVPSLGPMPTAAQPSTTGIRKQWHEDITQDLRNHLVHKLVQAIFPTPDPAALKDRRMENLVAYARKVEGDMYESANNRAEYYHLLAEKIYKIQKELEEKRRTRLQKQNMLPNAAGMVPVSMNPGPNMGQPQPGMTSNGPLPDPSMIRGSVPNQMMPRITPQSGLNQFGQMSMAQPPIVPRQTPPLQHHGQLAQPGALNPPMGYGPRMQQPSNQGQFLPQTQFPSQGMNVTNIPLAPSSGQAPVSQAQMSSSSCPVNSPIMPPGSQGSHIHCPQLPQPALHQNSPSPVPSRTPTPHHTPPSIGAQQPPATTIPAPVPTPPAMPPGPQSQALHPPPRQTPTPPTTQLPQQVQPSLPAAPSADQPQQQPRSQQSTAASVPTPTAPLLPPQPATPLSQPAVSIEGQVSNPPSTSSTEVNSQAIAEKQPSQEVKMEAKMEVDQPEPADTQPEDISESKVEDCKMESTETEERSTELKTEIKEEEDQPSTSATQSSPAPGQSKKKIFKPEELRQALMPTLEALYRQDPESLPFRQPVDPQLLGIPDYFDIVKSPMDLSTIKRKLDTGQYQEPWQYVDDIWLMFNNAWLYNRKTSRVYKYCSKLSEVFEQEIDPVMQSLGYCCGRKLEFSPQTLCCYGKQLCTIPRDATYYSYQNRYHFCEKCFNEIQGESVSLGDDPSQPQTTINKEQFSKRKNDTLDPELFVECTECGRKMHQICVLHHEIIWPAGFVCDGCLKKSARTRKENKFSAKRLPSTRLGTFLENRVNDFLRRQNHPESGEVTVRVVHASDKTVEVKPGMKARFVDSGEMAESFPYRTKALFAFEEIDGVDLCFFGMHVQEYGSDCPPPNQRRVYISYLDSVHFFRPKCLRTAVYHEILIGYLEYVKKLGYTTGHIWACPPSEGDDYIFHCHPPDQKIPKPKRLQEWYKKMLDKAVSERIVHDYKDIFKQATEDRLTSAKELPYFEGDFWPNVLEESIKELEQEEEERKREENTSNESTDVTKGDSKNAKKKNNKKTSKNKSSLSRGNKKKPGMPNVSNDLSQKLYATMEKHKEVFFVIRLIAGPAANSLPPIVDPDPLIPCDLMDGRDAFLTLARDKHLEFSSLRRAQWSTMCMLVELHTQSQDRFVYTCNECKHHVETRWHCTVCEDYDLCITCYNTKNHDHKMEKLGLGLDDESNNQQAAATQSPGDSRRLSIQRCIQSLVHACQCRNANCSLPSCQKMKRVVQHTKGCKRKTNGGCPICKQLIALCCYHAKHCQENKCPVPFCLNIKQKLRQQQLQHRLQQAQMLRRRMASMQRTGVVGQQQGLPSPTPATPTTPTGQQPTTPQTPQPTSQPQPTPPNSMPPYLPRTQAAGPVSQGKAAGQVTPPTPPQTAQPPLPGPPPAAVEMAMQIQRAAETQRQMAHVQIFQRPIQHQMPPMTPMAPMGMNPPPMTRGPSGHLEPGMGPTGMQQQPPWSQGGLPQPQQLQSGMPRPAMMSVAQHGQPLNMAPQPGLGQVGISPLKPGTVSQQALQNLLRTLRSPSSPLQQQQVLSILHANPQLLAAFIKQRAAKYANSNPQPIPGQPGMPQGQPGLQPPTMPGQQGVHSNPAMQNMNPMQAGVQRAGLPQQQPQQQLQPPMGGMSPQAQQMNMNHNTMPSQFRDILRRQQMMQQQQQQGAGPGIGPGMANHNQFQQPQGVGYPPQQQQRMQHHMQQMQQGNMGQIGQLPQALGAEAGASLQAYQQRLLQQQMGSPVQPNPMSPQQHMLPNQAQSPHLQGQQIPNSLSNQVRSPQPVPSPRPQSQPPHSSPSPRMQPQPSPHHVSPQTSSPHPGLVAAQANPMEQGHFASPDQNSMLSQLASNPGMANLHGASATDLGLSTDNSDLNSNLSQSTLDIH

- binding [1]: binds
- binding [2]: binds
- binding [3]: binds
- binding [4]: binds
B1: SRF-C3orf62 fusion tagged with BirA-FLAG (protein, human;Aquifex aeolicus, UniProt P11831 1-338, looked up, not shown: small tags and cut ends)
chain: MLPTQAGAAAALGRGSALGGSLNRTPTGRPGGGGGTRGANGGRVPGNGAGLGPGRLEREAAAAAATTPAPTAGALYSGSEGDSESGEEEELGAERRGLKRSLSEMEIGMVVGGPEASAAATGGYGPVSGAVSGAKPGKKTRGRVKIKMEFIDNKLRRYTTFSKRKTGIMKKAYELSTLTGTQVLLLVASETGHVYTFATRKLQPMITSETGKALIQTCLNSPDSPPRSDPTTDQRMSATGFEETDLTYQVSESDSSGETKDTLKPAFTVTNLPGTTSTIQTAPSTSTTMQVSSGPSFPITNYLAPVSASVSPSAVSSANGTVLKSTGSGPVSSGGLMQAAVPCAPENENPAFATNHAPVNAKPHALCPERKPLTSKENVLMHSSILAPERESWRTAGEGENWRKENLRKDMERDLKADSNMPLNNSSQEVTKDLLDMIDHTSIRTIEELAGKIEFENELNHMCGHCQDSPFKEEAWALLMDKSPQKATDADPGSLKQAFDDHNIVETVLDLEEDYNVMTSFKYQIE

Reference: US20240309360A1, “TRANS-ACTIVATORS AND METHODS AND USE THEREOF” (THE GOVERNING COUNCIL OF THE UNIVERSITY OF TORONTO, priority 2021, published 2024)
